Results are given in words; binding and its absence hold for the method and conditions named. Binding seen in cells or lysates may run through a third protein. A yes stands for co-enrichment or nearness to the bait. Other partners may have been found.
B1: nucleolar protein 58 (protein, UniProt Q9Y2X3 1-529)
chain: MLVLFETSVGYAIFKVLNEKKLQEVDSLWKEFETPEKANKIVKLKHFEKFQDTAEALAAFTALMEGKINKQLKKVLKKIVKEAHEPLAVADAKLGGVIKEKLNLSCIHSPVVNELMRGIRSQMDGLIPGVEPREMAAMCLGLAHSLSRYRLKFSADKVDTMIVQAISLLDDLDKELNNYIMRCREWYGWHFPELGKIISDNLTYCKCLQKVGDRKNYASAKLSELLPEEVEAEVKAAAEISMGTEVSEEDICNILHLCTQVIEISEYRTQLYEYLQNRMMAIAPNVTVMVGELVGARLIAHAGSLLNLAKHAASTVQILGAEKALFRALKSRRDTPKYGLIYHASLVGQTSPKHKGKISRMLAAKTVLAIRYDAFGEDSSSAMGVENRAKLEARLRTLEDRGIRKISGTGKALAKTEKYEHKSEVKTYDPSGDSTLPTCSKKRKIEQVDKEDEITEKKAKKAKIKVKVEEEEEEKVAEEEETSVKKKKKRGKKKHIKEEPLSEEEPCTSTAIASPEKKKKKKKKRENED
B2: H/ACA ribonucleoprotein complex subunit 4 (protein, UniProt O60832 1-514)
chain: MADAEVIILPKKHKKKKERKSLPEEDVAEIQHAEEFLIKPESKVAKLDTSQWPLLLKNFDKLNVRTTHYTPLACGSNPLKREIGDYIRTGFINLDKPSNPSSHEVVAWIRRILRVEKTGHSGTLDPKVTGCLIVCIERATRLVKSQQSAGKEYVGIVRLHNAIEGGTQLSRALETLTGALFQRPPLIAAVKRQLRVRTIYESKMIEYDPERRLGIFWVSCEAGTYIRTLCVHLGLLLGVGGQMQELRRVRSGVMSEKDHMVTMHDVLDAQWLYDNHKDESYLRRVVYPLEKLLTSHKRLVMKDSAVNAICYGAKIMLPGVLRYEDGIEVNQEIVVITTKGEAICMAIALMTTAVISTCDHGIVAKIKRVIMERDTYPRKWGLGPKASQKKLMIKQGLLDKHGKPTDSTPATWKQEYVDYSESAKKEVVAEVVKAPQVVAEAAKTAKRKRESESESDETPPAAPQLIKKEKKKSKKDKKAKAGLESGAEPGDGDSDTTKKKKKKKKAKEVELVSE
B3: fibrillarin (protein, UniProt P22087 1-321)
chain: MKPGFSPRGGGFGGRGGFGDRGGRGGRGGFGGGRGRGGGFRGRGRGGGGGGGGGGGGGRGGGGFHSGGNRGRGRGGKRGNQSGKNVMVEPHRHEGVFICRGKEDALVTKNLVPGESVYGEKRVSISEGDDKIEYRAWNPFRSKLAAAILGGVDQIHIKPGAKVLYLGAASGTTVSHVSDIVGPDGLVYAVEFSHRSGRDLINLAKKRTNIIPVIEDARHPHKYRMLIAMVDVIFADVAQPDQTRIVALNAHTFLRNGGHFVISIKANCIDSTASAEAVFASEVKKMQQENMKPQEQLTLEPYERDHAVVVGVYRPPPKVKN
B4: rRNA 2′-O-methyltransferase FTSJ3 (protein, UniProt Q8IY81 1-847)
chain: MGKKGKVGKSRRDKFYHLAKETGYRSRSAFKLIQLNRRFQFLQKARALLDLCAAPGGWLQVAAKFMPVSSLIVGVDLVPIKPLPNVVTLQQDITTERCRQALRKELKTWKVDVVLNDGAPNVGASWVHDAYSQAHLTLMALRLACDFLARGGSFITKVFRSRDYQPLLWIFQQLFRRVQATKPQASRHESAEIFVVCQGFLAPDKVDSKFFDPKFAFKEVEVQAKTVTELVTKKKPKAEGYAEGDLTLYHRTSVTDFLRAANPVDFLSKASEIMVDDEELAQHPATTEDIRVCCQDIRVLGRKELRSLLNWRTKLRRYVAKKLKEQAKALDISLSSGEEDEGDEEDSTAGTTKQPSKEEEEEEEEEQLNQTLAEMKAQEVAELKRKKKKLLREQRKQRERVELKMDLPGVSIADEGETGMFSLSTIRGHQLLEEVTQGDMSAADTFLSDLPRDDIYVSDVEDDGDDTSLDSDLDPEELAGVRGHQGLRDQKRMRLTEVQDDKEEEEEENPLLVPLEEKAVLQEEQANLWFSKGSFAGIEDDADEALEISQAQLLFENRRKGRQQQQKQQLPQTPPSCLKTEIMSPLYQDEAPKGTEASSGTEAATGLEGEEKDGISDSDSSTSSEEEESWEPLRGKKRSRGPKSDDDGFEIVPIEDPAKHRILDPEGLALGAVIASSKKAKRDLIDNSFNRYTFNEDEGELPEWFVQEEKQHRIRQLPVGKKEVEHYRKRWREINARPIKKVAEAKARKKRRMLKRLEQTRKKAEAVVNTVDISEREKVAQLRSLYKKAGLGKEKRHVTYVVAKKGVGRKVRRPAGVRGHFKVVDSRMKKDQRAQQRKEQKKKHKRK

The binders below were run against EGFP-tagged PRRSV nucleocapsid (N) protein (PRRSV (type 2, strain 01NP1)) (assay: affinity purification with mass spectrometry; EGFP-N (control: EGFP) overexpressed in HEK293T, captured from lysate on GFP-trap agarose beads; lysis and wash buffer 50 mM HEPES pH 7.4, 150 mM NaCl, 1 mM EDTA, 10% glycerol, 1% Triton X-100; 2 h at 4 °C, 7 washes; label-free LC-MS/MS, three biological replicates; hits: mean enrichment ratio >= 8, p <= 0.02).
With B1 the binding was “binds”. B2 was tested, and the binding was “binds”. For B3, the binding was “binds”. B4 was tested, and the binding was “binds”.

Reference: PMC12604043
